Data: US10532084B2 (EYEBIO KOREA, priority 2016, dated 2020)
Where no end group is shown, it is not given here. [ ]: non-standard residue; d: D form. Hyp = O=C(O)[C@@H]1C[C@@H](O)CN1

Test: peptide made by a vendor
Settings: whole synthesis, HPLC

[Hyp]GQDGLAGPK
purity (crude or final not stated): 99.3%
